PubChem BioAssay AID1259308 | NCATS | 2017
The deposit covers about 59,000 reagents; shown is a random part of them. About 1,510 of them (2.6%) were called active. 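Calls use total luciferase alone and ignore viability, so some active siRNAs may act by altering cell number.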 Reagents against one gene are numbered here. Further read-outs or replicates are left out here.

Aim: 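Candidate targets for better recombinant protein yield in mammalian cells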 (primary screen)
Cell system: human HEK293 embryonic kidney cells stably expressing firefly luciferase (HEK-CMV-Luc2-Hygro)
Reagents: single siRNA against human genes, 0.8 pmol siRNA per well
Time to read-out: 72 h
Measurement: 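Luciferase light (ONE-Glo) measured on one replicate plate set and viability (CellTiter-Glo) on the other, scaled to a negative control siRNA, with robust z-scores and luciferase per cell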
Scale: total luciferase, z-score and total luciferase, % of control: higher = more reporter protein produced
Rule for the call: 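An siRNA counts as active if its total luciferase robust z-score exceeds 3; genes with two or more such siRNAs out of three were retested with fresh siRNAs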
Calls: active = raised luciferase; inactive = no rise

CTXN3 #1 — total luciferase, z-score: 0.76; total luciferase, % of control: 97; Outcome: inactive
CTXN3 #2 — total luciferase, z-score: -0.266; total luciferase, % of control: 76.6; Outcome: inactive
CTXN3 #3 — total luciferase, z-score: -0.619; total luciferase, % of control: 69.6; Outcome: inactive
OCLNP1 #1 — total luciferase, z-score: -0.322; total luciferase, % of control: 75.5; Outcome: inactive
OCLNP1 #2 — total luciferase, z-score: 0.629; total luciferase, % of control: 94.4; Outcome: inactive
OCLNP1 #3 — total luciferase, z-score: -0.347; total luciferase, % of control: 75; Outcome: inactive
SERTAD1 #1 — total luciferase, z-score: -1.41; total luciferase, % of control: 53.7; Outcome: inactive
SERTAD1 #2 — total luciferase, z-score: -0.151; total luciferase, % of control: 78.9; Outcome: inactive
SERTAD1 #3 — total luciferase, z-score: -0.67; total luciferase, % of control: 68.6; Outcome: inactive

A stretch taken from the entries so far, for reference:
CTXN3 #3 — total luciferase, z-score: -0.619; total luciferase, % of control: 69.6; Outcome: inactive
OCLNP1 #1 — total luciferase, z-score: -0.322; total luciferase, % of control: 75.5; Outcome: inactive
OCLNP1 #2 — total luciferase, z-score: 0.629; total luciferase, % of control: 94.4; Outcome: inactive

The results go on.
SDF2L1 #1 — total luciferase, z-score: -0.211; total luciferase, % of control: 77.7; Outcome: inactive
SDF2L1 #2 — total luciferase, z-score: 0.128; total luciferase, % of control: 84.4; Outcome: inactive
SDF2L1 #3 — total luciferase, z-score: -1.02; total luciferase, % of control: 61.7; Outcome: inactive
VLDLR #1 — total luciferase, z-score: -0.706; total luciferase, % of control: 67.8; Outcome: inactive
VLDLR #2 — total luciferase, z-score: 0.969; total luciferase, % of control: 101; Outcome: inactive
VLDLR #3 — total luciferase, z-score: -1.23; total luciferase, % of control: 57.3; Outcome: inactive
RPUSD2 #1 — total luciferase, z-score: 0.305; total luciferase, % of control: 88; Outcome: inactive
RPUSD2 #2 — total luciferase, z-score: 0.174; total luciferase, % of control: 85.4; Outcome: inactive
RPUSD2 #3 — total luciferase, z-score: -0.861; total luciferase, % of control: 64.8; Outcome: inactive
CDC50CP #1 — total luciferase, z-score: -0.998; total luciferase, % of control: 62; Outcome: inactive
CDC50CP #2 — total luciferase, z-score: 0.666; total luciferase, % of control: 95.1; Outcome: inactive
CDC50CP #3 — total luciferase, z-score: 0.0203; total luciferase, % of control: 82.3; Outcome: inactive
